Only a part is listed here, and it is no random draw. At the low end of the ranking the order means little.
Biological target: T1, FLI1 (UniProt Q01543)
T1 sequence: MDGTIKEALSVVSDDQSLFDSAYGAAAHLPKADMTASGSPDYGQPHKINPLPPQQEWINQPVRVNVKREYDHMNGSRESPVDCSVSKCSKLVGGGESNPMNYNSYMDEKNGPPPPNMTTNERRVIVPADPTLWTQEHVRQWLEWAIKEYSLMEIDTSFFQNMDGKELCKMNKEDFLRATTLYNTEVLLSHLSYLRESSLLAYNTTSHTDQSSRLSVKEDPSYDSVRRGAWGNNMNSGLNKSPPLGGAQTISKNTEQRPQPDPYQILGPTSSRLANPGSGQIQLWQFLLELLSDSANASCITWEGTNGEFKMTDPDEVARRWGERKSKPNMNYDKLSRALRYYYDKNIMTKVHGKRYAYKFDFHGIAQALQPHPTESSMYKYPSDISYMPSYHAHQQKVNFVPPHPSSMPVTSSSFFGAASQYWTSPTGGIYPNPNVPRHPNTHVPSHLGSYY
Assay: DAPPL (digital affinity profiling via proximity ligation, sequencing)
Conditions: 10 mM Tris-HCl pH 7.5, 50 mM NaCl, 1 mM DTT, 4% glycerol, room temperature, 30 min; GST-TFs on glutathione beads, 16-mer random dsDNA library, 0.1% …; high values mean tight binding; double strand, one strand shown; scale: fold enrichment (6-mer frequency, TF over GST control)

Chains of the proteins cited; added tags and fusions are not shown. Lines headed by an entry give the natural chain unless they say otherwise; changes in a name come on top.
UniProt Q01892: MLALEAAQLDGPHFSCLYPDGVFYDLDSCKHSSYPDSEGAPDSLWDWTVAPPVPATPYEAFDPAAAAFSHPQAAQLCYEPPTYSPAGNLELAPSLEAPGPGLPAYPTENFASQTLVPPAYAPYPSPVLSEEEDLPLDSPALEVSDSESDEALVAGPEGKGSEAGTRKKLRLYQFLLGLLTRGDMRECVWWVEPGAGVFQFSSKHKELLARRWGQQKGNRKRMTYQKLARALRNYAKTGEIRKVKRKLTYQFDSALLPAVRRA
UniProt P41161: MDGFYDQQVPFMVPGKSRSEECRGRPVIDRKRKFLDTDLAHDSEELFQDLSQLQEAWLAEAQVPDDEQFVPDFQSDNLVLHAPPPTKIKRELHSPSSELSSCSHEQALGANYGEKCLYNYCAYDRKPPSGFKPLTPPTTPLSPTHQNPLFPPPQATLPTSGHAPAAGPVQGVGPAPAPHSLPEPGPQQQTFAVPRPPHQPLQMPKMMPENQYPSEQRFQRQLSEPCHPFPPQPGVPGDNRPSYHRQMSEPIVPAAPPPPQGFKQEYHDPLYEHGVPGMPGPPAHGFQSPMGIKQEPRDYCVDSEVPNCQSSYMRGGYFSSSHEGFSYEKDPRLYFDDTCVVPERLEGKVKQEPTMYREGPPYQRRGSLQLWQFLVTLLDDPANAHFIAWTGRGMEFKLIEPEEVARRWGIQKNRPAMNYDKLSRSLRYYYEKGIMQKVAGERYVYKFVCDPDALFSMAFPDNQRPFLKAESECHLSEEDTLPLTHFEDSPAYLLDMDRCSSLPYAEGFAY
UniProt Q99607: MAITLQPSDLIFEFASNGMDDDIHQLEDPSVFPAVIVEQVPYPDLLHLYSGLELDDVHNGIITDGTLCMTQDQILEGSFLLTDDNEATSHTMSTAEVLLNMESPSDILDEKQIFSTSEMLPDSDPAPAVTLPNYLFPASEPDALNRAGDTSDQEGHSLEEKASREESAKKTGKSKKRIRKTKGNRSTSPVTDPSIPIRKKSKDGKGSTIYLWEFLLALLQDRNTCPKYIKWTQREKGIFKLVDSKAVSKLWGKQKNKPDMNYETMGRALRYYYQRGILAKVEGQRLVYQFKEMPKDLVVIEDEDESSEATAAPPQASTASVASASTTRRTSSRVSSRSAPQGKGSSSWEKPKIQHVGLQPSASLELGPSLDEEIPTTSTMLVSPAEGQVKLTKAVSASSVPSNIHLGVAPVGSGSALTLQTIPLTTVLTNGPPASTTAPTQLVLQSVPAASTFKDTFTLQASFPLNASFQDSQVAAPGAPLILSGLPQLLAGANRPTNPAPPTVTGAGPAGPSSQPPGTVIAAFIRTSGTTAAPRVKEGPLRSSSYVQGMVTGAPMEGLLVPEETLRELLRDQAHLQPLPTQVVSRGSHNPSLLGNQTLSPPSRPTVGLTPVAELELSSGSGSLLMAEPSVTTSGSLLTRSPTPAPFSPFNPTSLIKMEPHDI

Sequence	binding signal
CAGTAA	0.716
TAGCCA	0.823
CTGTGA	0.488
GAGCGA	0.604
AAACGT	0.954
AGCGCG	0.745
CACGGT	0.939
GGTGGC	0.847
GACATA	0.868
TAGTCG	0.482
GACCAG	0.614
AGTCAA	0.595
GCATGT	0.771
GGCGAG	0.487
GGCCGA	0.765
GTGATC	0.834
GGGTCC	0.78
ATCGGA	0.43
GTCGAT	0.739
GTGCCA	0.843

Sequence	binding signal
GTCGGG	0.216
GAACGC	0.701
CTGGAG	0.711
ACCAGG	0.791
GTGCGA	0.89
GCTGTG	0.763
AGACCG	0.472
CGAGAC	0.542
GTTAGT	0.856
CGTCAG	0.827
GAGCTG	0.802
GGCAGA	0.644
GGTCCG	0.687
GTCGCA	0.827
GCGTGC	0.802
AGTTAG	0.776
CAGCAA	0.945
AGCGTG	0.417
GTAAGG	0.821

Biological target: T2, EHF (UniProt Q9NZC4)
T2 sequence: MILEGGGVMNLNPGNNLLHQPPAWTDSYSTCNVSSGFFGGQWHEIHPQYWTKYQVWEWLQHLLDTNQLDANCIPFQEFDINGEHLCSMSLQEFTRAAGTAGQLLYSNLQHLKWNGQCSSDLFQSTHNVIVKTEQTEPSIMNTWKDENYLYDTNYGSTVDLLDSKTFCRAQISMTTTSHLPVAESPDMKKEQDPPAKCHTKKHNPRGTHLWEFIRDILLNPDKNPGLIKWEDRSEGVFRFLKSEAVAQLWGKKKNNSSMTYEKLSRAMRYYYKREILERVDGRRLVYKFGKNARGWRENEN
Assay: as above
Conditions: 10 mM Tris-HCl pH 7.5, 50 mM NaCl, 1 mM DTT, 4% glycerol, room temperature, 30 min; GST-TFs on glutathione beads, 16-mer random dsDNA library, 0.1% …; high values mean tight binding; double strand, one strand shown; scale: fold enrichment (6-mer frequency, TF over GST control)

Sequence	binding signal
CAGTAA	0.736
TAGCCA	0.83
CTGTGA	0.519
GAGCGA	0.64
AAACGT	0.963
AGCGCG	0.874
CACGGT	0.956
GGTGGC	0.755
GACATA	0.832
TAGTCG	0.436
GACCAG	0.683
AGTCAA	0.609
GCATGT	0.742
GGCGAG	0.535
GGCCGA	0.679
GTGATC	0.901
GGGTCC	0.782
ATCGGA	0.413
GTCGAT	0.668
GTGCCA	0.788

Sequence	binding signal
GTCGGG	0.208
GAACGC	0.742
CTGGAG	0.62
ACCAGG	0.885
GTGCGA	0.895
GCTGTG	0.693
AGACCG	0.455
CGAGAC	0.584
GTTAGT	0.769
CGTCAG	0.807
GAGCTG	0.742
GGCAGA	0.646
GGTCCG	0.785
GTCGCA	0.693
GCGTGC	0.739
AGTTAG	0.86
CAGCAA	0.968
AGCGTG	0.355
GTAAGG	0.817

Biological target: SPIB (UniProt Q01892)
Assay: as above
Conditions: 10 mM Tris-HCl pH 7.5, 50 mM NaCl, 1 mM DTT, 4% glycerol, room temperature, 30 min; GST-TFs on glutathione beads, 16-mer random dsDNA library, 0.1% …; high values mean tight binding; double strand, one strand shown; scale: fold enrichment (6-mer frequency, TF over GST control)

Sequence	binding signal
CAGTAA	0.73
TAGCCA	0.775
CTGTGA	0.518
GAGCGA	0.57
AAACGT	0.97
AGCGCG	0.885
CACGGT	0.958
GGTGGC	0.822
GACATA	0.836
TAGTCG	0.452
GACCAG	0.701
AGTCAA	0.57
GCATGT	0.769
GGCGAG	0.508
GGCCGA	0.819
GTGATC	0.778
GGGTCC	0.825
ATCGGA	0.451
GTCGAT	0.746
GTGCCA	0.775

Sequence	binding signal
GTCGGG	0.223
GAACGC	0.772
CTGGAG	0.684
ACCAGG	0.811
GTGCGA	0.848
GCTGTG	0.71
AGACCG	0.443
CGAGAC	0.553
GTTAGT	0.78
CGTCAG	0.779
GAGCTG	0.781
GGCAGA	0.602
GGTCCG	0.765
GTCGCA	0.755
GCGTGC	0.821
AGTTAG	0.834
CAGCAA	0.954
AGCGTG	0.392
GTAAGG	0.763

Biological target: ETV5 (UniProt P41161)
Assay: as above
Conditions: 10 mM Tris-HCl pH 7.5, 50 mM NaCl, 1 mM DTT, 4% glycerol, room temperature, 30 min; GST-TFs on glutathione beads, 16-mer random dsDNA library, 0.1% …; high values mean tight binding; double strand, one strand shown; scale: fold enrichment (6-mer frequency, TF over GST control)

Sequence	binding signal
CAGTAA	0.722
TAGCCA	0.737
CTGTGA	0.49
GAGCGA	0.596
AAACGT	0.942
AGCGCG	0.799
CACGGT	0.893
GGTGGC	0.724
GACATA	0.918
TAGTCG	0.447
GACCAG	0.617
AGTCAA	0.656
GCATGT	0.768
GGCGAG	0.494
GGCCGA	0.758
GTGATC	0.774
GGGTCC	0.873
ATCGGA	0.43
GTCGAT	0.708
GTGCCA	0.796

Sequence	binding signal
GTCGGG	0.219
GAACGC	0.769
CTGGAG	0.626
ACCAGG	0.783
GTGCGA	0.917
GCTGTG	0.715
AGACCG	0.494
CGAGAC	0.542
GTTAGT	0.768
CGTCAG	0.781
GAGCTG	0.744
GGCAGA	0.651
GGTCCG	0.806
GTCGCA	0.708
GCGTGC	0.809
AGTTAG	0.811
CAGCAA	0.962
AGCGTG	0.376
GTAAGG	0.766

Biological target: ELF4 (UniProt Q99607)
Assay: as above
Conditions: 10 mM Tris-HCl pH 7.5, 50 mM NaCl, 1 mM DTT, 4% glycerol, room temperature, 30 min; GST-TFs on glutathione beads, 16-mer random dsDNA library, 0.1% …; high values mean tight binding; double strand, one strand shown; scale: fold enrichment (6-mer frequency, TF over GST control)

Sequence	binding signal
CAGTAA	0.757
TAGCCA	0.882
CTGTGA	0.516
GAGCGA	0.668
AAACGT	0.935
AGCGCG	0.843
CACGGT	0.931
GGTGGC	0.684
GACATA	0.884
TAGTCG	0.432
GACCAG	0.663
AGTCAA	0.611
GCATGT	0.856
GGCGAG	0.504
GGCCGA	0.693
GTGATC	0.818
GGGTCC	0.829
ATCGGA	0.421
GTCGAT	0.772
GTGCCA	0.761

Sequence	binding signal
GTCGGG	0.198
GAACGC	0.803
CTGGAG	0.619
ACCAGG	0.754
GTGCGA	0.913
GCTGTG	0.699
AGACCG	0.466
CGAGAC	0.561
GTTAGT	0.77
CGTCAG	0.855
GAGCTG	0.767
GGCAGA	0.64
GGTCCG	0.682
GTCGCA	0.713
GCGTGC	0.743
AGTTAG	0.833
CAGCAA	0.952
AGCGTG	0.363
GTAAGG	0.721

Biological target: T3, ETV2 (UniProt O00321)
T3 sequence: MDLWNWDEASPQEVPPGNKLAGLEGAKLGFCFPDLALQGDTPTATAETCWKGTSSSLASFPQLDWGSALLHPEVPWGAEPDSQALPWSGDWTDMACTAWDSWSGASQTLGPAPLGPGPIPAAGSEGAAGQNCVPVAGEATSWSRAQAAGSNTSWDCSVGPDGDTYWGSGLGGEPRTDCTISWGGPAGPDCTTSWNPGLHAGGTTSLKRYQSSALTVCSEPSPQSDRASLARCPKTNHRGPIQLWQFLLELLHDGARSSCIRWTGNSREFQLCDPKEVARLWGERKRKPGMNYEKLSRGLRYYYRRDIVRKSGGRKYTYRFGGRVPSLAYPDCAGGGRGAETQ
Assay: as above
Conditions: 10 mM Tris-HCl pH 7.5, 50 mM NaCl, 1 mM DTT, 4% glycerol, room temperature, 30 min; GST-TFs on glutathione beads, 16-mer random dsDNA library, 0.1% …; high values mean tight binding; double strand, one strand shown; scale: fold enrichment (6-mer frequency, TF over GST control)

Sequence	binding signal
CAGTAA	0.79
TAGCCA	0.929
CTGTGA	0.484
GAGCGA	0.735
AAACGT	0.947
AGCGCG	0.797
CACGGT	0.819
GGTGGC	0.688
GACATA	0.902
TAGTCG	0.521
GACCAG	0.597
AGTCAA	0.659
GCATGT	0.81
GGCGAG	0.524
GGCCGA	0.805
GTGATC	0.886
GGGTCC	0.788
ATCGGA	0.411
GTCGAT	0.699
GTGCCA	0.846

Sequence	binding signal
GTCGGG	0.218
GAACGC	0.718
CTGGAG	0.716
ACCAGG	0.808
GTGCGA	0.873
GCTGTG	0.748
AGACCG	0.504
CGAGAC	0.567
GTTAGT	0.848
CGTCAG	0.829
GAGCTG	0.689
GGCAGA	0.779
GGTCCG	0.715
GTCGCA	0.773
GCGTGC	0.837
AGTTAG	0.78
CAGCAA	0.981
AGCGTG	0.366
GTAAGG	0.732
